# Measured values published in patent publication US12577239B2, “Sulfilimines or sulfoximines containing fungicidal heterocyclic compounds” (PI INDUSTRIES LTD., priority 2019, dated 2026).
# Some of these results come from one statement about several compounds together. At least one compound was matched to its structure with a doubt left.
# Tested on: Phytophthora infestans
# Type: cell-based
# Details: 30 ppm; Rye Agar, radial growth after seven days at 18° C., 95% relative humidity
row,Structure (SMILES),control compared to the untreated check [%]
1,CCS(C)(=O)=Nc1cccc(Cl)c1C1CC(c2csc(C3CCN(C(=O)Cn4nc(C(F)(F)F)cc4C)CC3)n2)=NO1 (stereo not shown) [Compound 94],≥ 70
2,Cc1cc(C)n(CC(=O)N2CCC(c3nc(C4=NO[C@@H](c5c(Cl)cccc5S(=N)(=O)C(C)C)C4)cs3)CC2)n1 (stereo partly shown) [Compound 43],≥ 70
3,Cc1cc(C)n(CC(=O)N2CCC(c3nc(C4=NOC(c5cccc(N=S(C)(C)=O)c5)C4)cs3)CC2)n1 (stereo not shown) [Compound 18],≥ 70
4,CS(C)(=O)=Nc1cccc(F)c1C1CC(c2csc(C3CCN(C(=O)Cn4cc(C(F)(F)F)cc(Cl)c4=O)CC3)n2)=NO1 (stereo not shown) [Compound 11],≥ 70
5,Cc1cc(C(F)(F)F)nn1CC(=O)N1CCC(c2nc(C3=NOC(c4c(Cl)cccc4/S(=N\C#N)C(C)C)C3)cs2)CC1 (stereo not shown) [Compound 76],≥ 70
6,CS(=N)(=O)c1cccc(C(F)F)c1C1CC(c2csc(C3CCN(C(=O)Cn4cccc(C(F)(F)F)c4=O)CC3)n2)=NO1 (stereo not shown) [Compound 103],≥ 70
7,Cc1cc(C(F)(F)F)nn1CC(=O)N1CCC(c2nc(C3=NOC(c4c(Cl)cccc4N=S(C)(C)=O)C3)cs2)CC1 (stereo not shown) [Compound 74],≥ 70
8,Cc1cc(C)n(CC(=O)N2CCC(c3nc(C4=NOC(c5c(F)cccc5N=S(C)(C)=O)C4)cs3)CC2)n1 (stereo not shown) [Compound 13],≥ 70
9,CS(C)(=O)=Nc1cccc(F)c1C1CC(c2csc(C3CCN(C(=O)Cn4cc(Cl)cc(Br)c4=O)CC3)n2)=NO1 (stereo not shown) [Compound 28],≥ 70
10,CS(=N)(=O)c1cccc(C(F)(F)F)c1C1CC(c2csc(C3CCN(C(=O)Cn4nc(C(F)(F)F)cc4C(F)(F)F)CC3)n2)=NO1 (stereo not shown) [Compound 79],≥ 70
11,CCS(C)(=O)=Nc1cccc(F)c1C1CC(c2csc(C3CCN(C(=O)Cn4nc(C)cc4C)CC3)n2)=NO1 (stereo not shown) [Compound 92],≥ 70
12,CCS(C)(=O)=Nc1cccc(F)c1C1CC(c2csc(C3CCN(C(=O)Cn4nc(C(F)(F)F)cc4C(F)(F)F)CC3)n2)=NO1 (stereo not shown) [Compound 90],≥ 70
13,CC(C)S(=O)(=Nc1cccc(F)c1C1CC(c2csc(C3CCN(C(=O)COc4nccnc4C(F)(F)F)CC3)n2)=NO1)c1ccccc1 (stereo not shown) [Compound 216],≥ 70
14,Cc1cc(C(F)(F)F)nn1CC(=O)N1CCC(c2nc(C3=NOC(c4c(C#N)cccc4S(C)(=N)=O)C3)cs2)CC1 (stereo not shown) [Compound 106],≥ 70
15,CCS(=O)(CC)=Nc1cccc(F)c1C1CC(c2nc(C3CCN(C(=O)Cn4nc(C(F)F)cc4C(F)F)CC3)cs2)=NO1 (stereo not shown) [Compound 245],≥ 70
16,CS(C)(=O)=Nc1cccc(F)c1C1CC(c2csc(C3CCN(C(=O)COc4nccnc4Cl)CC3)n2)=NO1 (stereo not shown) [Compound 214],≥ 70
17,CC(C)S(=O)(=Nc1cccc(F)c1C1CC(c2csc(C3CCN(C(=O)Cn4cc(C(F)(F)F)cc(Cl)c4=O)CC3)n2)=NO1)c1ccccc1 (stereo not shown) [Compound 218],≥ 70
18,"Cc1ccn(CC(=O)N2CCC(c3nc(C4=NOC(c5c(F)cccc5S(C)=NC#N)C4)cs3)CC2)n1 (single isomer, unassigned) [Compound 38]",≥ 70
19,COc1nccnc1OCC(=O)N1CCC(c2nc(C3=NOC(c4c(F)cccc4N=S(=O)(C(C)C)C(C)C)C3)cs2)CC1 (stereo not shown) [Compound 208],≥ 70
20,CCS(C)(=O)=Nc1cccc(Cl)c1C1CC(c2csc(C3CCN(C(=O)Cn4nc(C(F)(F)F)cc4C(F)(F)F)CC3)n2)=NO1 (stereo not shown) [Compound 95],≥ 70
21,COc1cccnc1OCC(=O)N1CCC(c2nc(C3=NOC(c4c(Cl)cccc4N=S(C)(C)=O)C3)cs2)CC1 (stereo not shown) [Compound 88],≥ 70
22,CCS(C)(=O)=Nc1cccc(F)c1C1CC(c2csc(C3CCN(C(=O)COc4ncccc4OC)CC3)n2)=NO1 (stereo not shown) [Compound 93],≥ 70
23,COc1cccnc1OCC(=O)N1CCC(c2nc(C3=NOC(c4c(Cl)cccc4S(C)(=N)=O)C3)cs2)CC1 (stereo not shown) [Compound 165],≥ 70
24,CCS(=O)(=Nc1cccc(Cl)c1C1CC(c2csc(C3CCN(C(=O)COc4nccnc4C(F)(F)F)CC3)n2)=NO1)C(C)C (stereo not shown) [Compound 241],≥ 70
25,Cc1cc(C)n(CC(=O)N2CCC(c3nc(C4=NOC(c5c(F)cccc5N=S(=O)(c5ccccc5)C(C)C)C4)cs3)CC2)n1 (stereo not shown) [Compound 219],≥ 70
26,CS(=O)(=O)c1nccnc1OCC(=O)N1CCC(c2nc(C3=NOC(c4c(F)cccc4N=S(C)(C)=O)C3)cs2)CC1 (stereo not shown) [Compound 235],≥ 70
27,Cc1cc(C)n(CC(=O)N2CCC(c3nc(C4=NOC(c5cccc(N=S6(=O)CCCC6)c5)C4)cs3)CC2)n1 (stereo not shown) [Compound 22],≥ 70
28,CCCS(=O)(=Nc1cccc(F)c1C1CC(c2csc(C3CCN(C(=O)Cn4nc(C(F)(F)F)cc4C(F)(F)F)CC3)n2)=NO1)C(C)C (stereo not shown) [Compound 196],≥ 70

row,Structure (SMILES),control compared to the untreated check [%]
1,CCCS(=O)(=Nc1cccc(F)c1C1CC(c2csc(C3CCN(C(=O)Cn4nc(C)cc4C)CC3)n2)=NO1)C(C)C (stereo not shown) [Compound 199],≥ 70
2,CS1(=O)=Nc2c(cc(Cl)cc2[C@H]2CC(c3csc(C4CCN(C(=O)Cn5nc(C(F)F)cc5C(F)F)CC4)n3)=NO2)C1 (stereo partly shown) [Compound 56],≥ 70
3,COc1cccnc1OCC(=O)N1CCC(c2nc(C3=NOC(c4c(F)cccc4N=S(=O)(C(C)C)C(C)C)C3)cs2)CC1 (stereo not shown) [Compound 211],≥ 70
4,Cc1cc(C(F)(F)F)nn1CC(=O)N1CCC(c2nc(C3=NO[C@H](c4cccc5c4N=S(C)(=O)C5)C3)cs2)CC1 (stereo partly shown) [Compound 46],≥ 70
5,Cc1cc(C)n(CC(=O)N2CCC(c3nc(C4=NOC(c5c(Cl)cccc5N=S(=O)(C(C)C)C(C)C)C4)cs3)CC2)n1 (stereo not shown) [Compound 228],≥ 70
6,CC(C)S(=O)(=Nc1cccc(F)c1C1CC(c2csc(C3CCN(C(=O)Cn4nc(C(F)F)cc4C(F)F)CC3)n2)=NO1)C(C)C (stereo not shown) [Compound 206],≥ 70
7,COc1cccnc1OCC(=O)N1CCC(c2csc(C3=NOC(c4c(F)cccc4N=S(C)(C)=O)C3)n2)CC1 (stereo not shown) [Compound 179],≥ 70
8,CC(C)S(=N)(=O)c1cccc(C(F)F)c1C1CC(c2csc(C3CCN(C(=O)COc4nccnc4C(F)(F)F)CC3)n2)=NO1 (stereo not shown) [Compound 191],≥ 70
9,CCCS(=O)(=Nc1cccc(F)c1C1CC(c2csc(C3CCN(C(=O)Cn4nc(C(F)F)cc4C(F)F)CC3)n2)=NO1)C(C)C (stereo not shown) [Compound 198],≥ 70
10,Cc1cc(C(F)(F)F)nn1CC(=O)N1CCC(c2nc(C3=NOC(c4c(F)cccc4N=S(=O)(C(C)C)C(C)C)C3)cs2)CC1 (stereo not shown) [Compound 205],≥ 70
11,Cc1cc(C(F)(F)F)nn1CC(=O)N1CCC(c2nc(C3=NOC(c4c(C(F)F)cccc4S(C)(=N)=O)C3)cs2)CC1 (stereo not shown) [Compound 101],≥ 70
12,COc1cccnc1OCC(=O)N1CCC(c2nc(C3=NOC(c4c(F)cccc4N=S(=O)(c4ccccc4)C(C)C)C3)cs2)CC1 (stereo not shown) [Compound 217],≥ 70
13,CC(C)S(=O)(=Nc1cccc(Cl)c1C1CC(c2csc(C3CCN(C(=O)COc4ncccc4C(F)(F)F)CC3)n2)=NO1)C(C)C (stereo not shown) [Compound 229],≥ 70
14,CCS(=O)(=Nc1cccc(F)c1C1CC(c2csc(C3CCN(C(=O)Cn4nc(C(F)(F)F)cc4C(F)(F)F)CC3)n2)=NO1)C(C)C (stereo not shown) [Compound 181],≥ 70
15,CS(C)(=O)=Nc1cccc(C2CC(c3csc(C4CCN(C(=O)Cn5nc(C(F)F)cc5C(F)F)CC4)n3)=NO2)c1 (stereo not shown) [Compound 16],≥ 70
16,Cc1cc(C(F)(F)F)nn1CC(=O)N1CCC(c2nc(C3=NOC(c4c(Cl)cccc4N=S4(=O)CCCC4)C3)cs2)CC1 (stereo not shown) [Compound 107],≥ 70
17,CS(=N)(=O)c1cccc(C(F)(F)F)c1C1CC(c2csc(C3CCN(C(=O)Cn4nc(C(F)F)cc4C(F)F)CC3)n2)=NO1 (stereo not shown) [Compound 78],≥ 70
18,O=C(Cn1nc(C(F)F)cc1C(F)F)N1CCC(c2nc(C3=NOC(c4cccc(N=S5(=O)CCCC5)c4)C3)cs2)CC1 (stereo not shown) [Compound 24],≥ 70
19,Cc1cc(C(F)(F)F)nn1CC(=O)N1CCC(c2nc(C3=NOC(c4c(F)ccc5c4N=S(C)(=O)C5)C3)cs2)CC1 (stereo not shown) [Compound 19],≥ 70
20,CC(C)S(=O)(=Nc1cccc(Cl)c1C1CC(c2csc(C3CCN(C(=O)COc4nccnc4C(F)(F)F)CC3)n2)=NO1)C(C)C (stereo not shown) [Compound 232],≥ 70
21,CCS(=O)(=Nc1cccc(F)c1C1CC(c2csc(C3CCN(C(=O)COc4ncccc4C(F)(F)F)CC3)n2)=NO1)C(C)C (stereo not shown) [Compound 184],≥ 70
22,CCS(=O)(=Nc1cccc(F)c1C1CC(c2csc(C3CCN(C(=O)Cn4nc(C(F)(F)F)cc4C)CC3)n2)=NO1)C(C)C (stereo not shown) [Compound 182],≥ 70
23,CS1(=O)=Nc2c(cccc2[C@@H]2CC(c3csc(C4CCN(C(=O)Cn5nc(C(F)F)cc5C(F)F)CC4)n3)=NO2)C1 (stereo partly shown) [Compound 34],≥ 70
24,CCS(=O)(CC)=Nc1cccc(Cl)c1C1CC(c2csc(C3CCN(C(=O)Cn4cc(Cl)cc(C(F)(F)F)c4=O)CC3)n2)=NO1 (stereo not shown) [Compound 161],≥ 70
25,COc1cccnc1OCC(=O)N1CCC(c2nc(C3=NOC(c4c(Cl)cccc4N=S(=O)(C(C)C)C(C)C)C3)cs2)CC1 (stereo not shown) [Compound 230],≥ 70
26,CS(=O)(=NC#N)c1cccc(F)c1C1CC(c2csc(C3CCN(C(=O)Cn4nc(C(F)F)cc4C(F)F)CC3)n2)=NO1 (stereo not shown) [Compound 37],≥ 70
27,CC(C)S(=O)(=Nc1cccc(F)c1C1CC(c2csc(C3CCN(C(=O)Cn4nc(C(F)(F)F)cc4C4CC4)CC3)n2)=NO1)C(C)C (stereo not shown) [Compound 207],≥ 70
